Experimental data taken from patent publication US20250339465A1.
Results are given in words; binding and its absence hold for the method and conditions named. Some binding calls cover weakened binding; strength is not graded here.

The chains behind the UniProt entries cited, without tags or fusion partners. Residues count along the entry.
UniProt Q01973, residues 30-406: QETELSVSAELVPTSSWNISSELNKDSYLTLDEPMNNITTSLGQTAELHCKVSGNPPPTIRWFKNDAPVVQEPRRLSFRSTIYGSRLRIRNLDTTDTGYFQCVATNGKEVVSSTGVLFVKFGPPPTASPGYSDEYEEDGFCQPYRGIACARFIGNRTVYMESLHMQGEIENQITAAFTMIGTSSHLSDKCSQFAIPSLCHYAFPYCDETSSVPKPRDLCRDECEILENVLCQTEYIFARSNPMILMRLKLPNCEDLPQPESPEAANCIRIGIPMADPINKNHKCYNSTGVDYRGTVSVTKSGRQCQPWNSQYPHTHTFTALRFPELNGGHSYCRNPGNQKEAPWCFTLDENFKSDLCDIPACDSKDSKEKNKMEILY

Target: extracellular ROR1 protein (UniProt Q01973)
Assay: ELISA

B1: mouse monoclonal anti-ROR1 antibody, hybridoma clone 2H6 (antibody, V domains shown)
VH: VKLVESGGGLVKPGGSLKLSCAASGFTFSTYAMSWVRQTPEKRLEWVASISSGGNTYYPDSVKGRFTISRDNARHILYLQMSSLRSEDTAMYYCARDSYYFGNSVYYAMDYWGQGTSVTVSS
VL: DIKMTQSPSSMYASLGERVTITCKASQDINSYFSWFQQKPGKSPKTLIYRANRLVDGVPSRFSGSGSGQDYSLTISSLEYEDMGIYYCLQYDEFPYTFGGGTKLEIKR
binding: binds
